Measured values from the supplement of paper PMC10849652.
This is one part of the list.

The chains behind the UniProt entries cited, without tags or fusion partners. Where a name states a change or a piece, a line headed by the entry shows the natural chain unless it says otherwise.
UniProt Q86VS8: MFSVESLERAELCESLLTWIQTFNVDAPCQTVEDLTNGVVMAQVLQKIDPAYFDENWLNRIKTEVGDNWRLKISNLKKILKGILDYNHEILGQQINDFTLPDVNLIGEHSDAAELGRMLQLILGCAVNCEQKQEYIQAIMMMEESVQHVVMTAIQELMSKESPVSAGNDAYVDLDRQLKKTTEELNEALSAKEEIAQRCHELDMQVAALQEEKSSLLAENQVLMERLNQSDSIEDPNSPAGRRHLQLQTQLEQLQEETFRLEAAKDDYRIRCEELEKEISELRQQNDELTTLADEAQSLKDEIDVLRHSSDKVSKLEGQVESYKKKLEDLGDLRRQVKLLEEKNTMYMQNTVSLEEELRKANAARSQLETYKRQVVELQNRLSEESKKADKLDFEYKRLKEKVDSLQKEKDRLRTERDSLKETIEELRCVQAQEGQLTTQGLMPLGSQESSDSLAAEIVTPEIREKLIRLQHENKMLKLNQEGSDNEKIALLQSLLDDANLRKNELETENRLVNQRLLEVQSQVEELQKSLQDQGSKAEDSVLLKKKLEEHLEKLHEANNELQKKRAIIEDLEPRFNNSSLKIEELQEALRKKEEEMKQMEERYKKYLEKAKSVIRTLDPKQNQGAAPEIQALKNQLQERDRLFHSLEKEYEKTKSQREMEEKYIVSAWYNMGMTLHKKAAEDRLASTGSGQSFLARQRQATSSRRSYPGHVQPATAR
UniProt Q9UGU5: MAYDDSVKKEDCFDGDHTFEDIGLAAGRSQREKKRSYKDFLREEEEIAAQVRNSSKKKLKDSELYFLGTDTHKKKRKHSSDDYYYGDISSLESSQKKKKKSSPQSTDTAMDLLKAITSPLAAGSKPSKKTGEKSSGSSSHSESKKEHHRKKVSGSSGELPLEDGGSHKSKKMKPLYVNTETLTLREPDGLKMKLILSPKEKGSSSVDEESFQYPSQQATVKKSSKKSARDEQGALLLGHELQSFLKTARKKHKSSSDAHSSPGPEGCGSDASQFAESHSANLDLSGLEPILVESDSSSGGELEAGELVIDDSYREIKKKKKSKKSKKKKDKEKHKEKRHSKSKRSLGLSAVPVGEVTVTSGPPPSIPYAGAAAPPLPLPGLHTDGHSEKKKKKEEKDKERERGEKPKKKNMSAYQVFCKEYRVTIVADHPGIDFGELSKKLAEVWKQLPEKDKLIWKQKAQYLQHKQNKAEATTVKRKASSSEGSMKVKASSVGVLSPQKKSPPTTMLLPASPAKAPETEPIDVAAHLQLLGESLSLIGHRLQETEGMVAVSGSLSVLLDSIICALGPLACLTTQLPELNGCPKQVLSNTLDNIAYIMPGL
UniProt O75506: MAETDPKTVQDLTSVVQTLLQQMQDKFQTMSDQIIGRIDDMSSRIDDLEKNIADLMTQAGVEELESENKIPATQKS
UniProt O43390: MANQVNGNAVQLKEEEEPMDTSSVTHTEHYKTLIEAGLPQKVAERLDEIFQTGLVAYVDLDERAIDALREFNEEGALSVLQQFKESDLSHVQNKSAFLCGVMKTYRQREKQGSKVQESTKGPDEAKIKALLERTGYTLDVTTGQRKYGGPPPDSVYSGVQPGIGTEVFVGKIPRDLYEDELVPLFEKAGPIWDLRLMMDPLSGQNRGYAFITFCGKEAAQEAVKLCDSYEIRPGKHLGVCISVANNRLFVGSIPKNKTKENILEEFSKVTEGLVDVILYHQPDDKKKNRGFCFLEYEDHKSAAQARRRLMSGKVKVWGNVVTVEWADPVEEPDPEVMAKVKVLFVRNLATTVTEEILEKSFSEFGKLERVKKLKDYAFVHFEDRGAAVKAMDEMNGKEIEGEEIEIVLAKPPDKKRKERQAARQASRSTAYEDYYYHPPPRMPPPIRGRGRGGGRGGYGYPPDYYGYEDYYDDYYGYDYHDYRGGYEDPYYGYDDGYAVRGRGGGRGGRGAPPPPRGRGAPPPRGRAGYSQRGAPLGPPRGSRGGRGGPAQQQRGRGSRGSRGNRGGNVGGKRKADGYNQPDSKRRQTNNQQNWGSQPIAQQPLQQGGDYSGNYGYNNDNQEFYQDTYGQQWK
UniProt Q5SSJ5: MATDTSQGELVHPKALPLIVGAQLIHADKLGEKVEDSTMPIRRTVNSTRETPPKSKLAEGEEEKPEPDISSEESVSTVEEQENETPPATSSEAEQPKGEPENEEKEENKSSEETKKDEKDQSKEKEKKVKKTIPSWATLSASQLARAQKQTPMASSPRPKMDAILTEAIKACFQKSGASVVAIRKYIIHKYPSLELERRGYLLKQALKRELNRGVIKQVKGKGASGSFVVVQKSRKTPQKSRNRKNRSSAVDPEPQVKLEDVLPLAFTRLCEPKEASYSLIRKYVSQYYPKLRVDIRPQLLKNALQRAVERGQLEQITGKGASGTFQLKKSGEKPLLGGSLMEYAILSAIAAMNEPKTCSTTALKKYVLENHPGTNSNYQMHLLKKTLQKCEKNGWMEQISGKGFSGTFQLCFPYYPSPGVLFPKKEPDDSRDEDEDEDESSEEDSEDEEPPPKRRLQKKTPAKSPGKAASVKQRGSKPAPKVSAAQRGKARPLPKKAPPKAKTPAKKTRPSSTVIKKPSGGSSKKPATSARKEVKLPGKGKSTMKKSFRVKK
UniProt Q9NWY4: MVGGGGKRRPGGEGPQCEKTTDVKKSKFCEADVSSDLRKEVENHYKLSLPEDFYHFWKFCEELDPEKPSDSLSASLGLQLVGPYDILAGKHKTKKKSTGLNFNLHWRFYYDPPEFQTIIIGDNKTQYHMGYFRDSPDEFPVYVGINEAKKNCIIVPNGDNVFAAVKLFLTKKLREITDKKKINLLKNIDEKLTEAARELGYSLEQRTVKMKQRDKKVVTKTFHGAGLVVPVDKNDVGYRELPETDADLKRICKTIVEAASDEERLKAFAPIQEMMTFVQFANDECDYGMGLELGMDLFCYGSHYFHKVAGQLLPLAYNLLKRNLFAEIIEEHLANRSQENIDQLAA
UniProt P22626: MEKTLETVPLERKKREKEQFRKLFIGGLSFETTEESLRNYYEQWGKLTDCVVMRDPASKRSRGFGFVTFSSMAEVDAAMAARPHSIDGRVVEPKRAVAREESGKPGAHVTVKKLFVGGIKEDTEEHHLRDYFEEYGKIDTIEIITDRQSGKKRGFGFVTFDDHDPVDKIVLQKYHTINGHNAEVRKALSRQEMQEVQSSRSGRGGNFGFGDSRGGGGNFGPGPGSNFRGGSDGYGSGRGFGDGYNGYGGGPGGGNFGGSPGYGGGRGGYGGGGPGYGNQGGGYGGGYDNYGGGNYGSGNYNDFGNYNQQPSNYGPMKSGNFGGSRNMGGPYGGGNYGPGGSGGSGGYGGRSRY
UniProt Q8NCD3, whole entry, looked up: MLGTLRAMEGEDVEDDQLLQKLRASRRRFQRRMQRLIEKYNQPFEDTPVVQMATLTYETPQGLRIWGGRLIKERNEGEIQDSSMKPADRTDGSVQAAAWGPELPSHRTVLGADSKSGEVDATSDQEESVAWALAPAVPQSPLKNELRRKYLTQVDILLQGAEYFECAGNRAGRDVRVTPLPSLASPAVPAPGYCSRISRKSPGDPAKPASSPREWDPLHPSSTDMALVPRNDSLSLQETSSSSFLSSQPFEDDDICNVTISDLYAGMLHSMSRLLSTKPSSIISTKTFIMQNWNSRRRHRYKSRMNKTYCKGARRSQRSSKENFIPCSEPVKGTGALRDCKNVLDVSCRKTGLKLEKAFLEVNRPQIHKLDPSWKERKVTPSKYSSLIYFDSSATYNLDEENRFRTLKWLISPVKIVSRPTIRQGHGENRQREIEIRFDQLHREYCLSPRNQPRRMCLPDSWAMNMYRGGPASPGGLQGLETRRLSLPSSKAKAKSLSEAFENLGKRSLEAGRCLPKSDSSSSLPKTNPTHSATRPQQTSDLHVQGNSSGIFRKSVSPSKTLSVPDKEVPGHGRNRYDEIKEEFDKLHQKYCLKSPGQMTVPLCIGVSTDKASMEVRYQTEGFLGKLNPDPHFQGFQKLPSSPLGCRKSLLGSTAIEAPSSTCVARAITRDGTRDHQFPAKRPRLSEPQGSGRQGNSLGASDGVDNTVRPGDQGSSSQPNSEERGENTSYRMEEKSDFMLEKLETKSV
UniProt P19367: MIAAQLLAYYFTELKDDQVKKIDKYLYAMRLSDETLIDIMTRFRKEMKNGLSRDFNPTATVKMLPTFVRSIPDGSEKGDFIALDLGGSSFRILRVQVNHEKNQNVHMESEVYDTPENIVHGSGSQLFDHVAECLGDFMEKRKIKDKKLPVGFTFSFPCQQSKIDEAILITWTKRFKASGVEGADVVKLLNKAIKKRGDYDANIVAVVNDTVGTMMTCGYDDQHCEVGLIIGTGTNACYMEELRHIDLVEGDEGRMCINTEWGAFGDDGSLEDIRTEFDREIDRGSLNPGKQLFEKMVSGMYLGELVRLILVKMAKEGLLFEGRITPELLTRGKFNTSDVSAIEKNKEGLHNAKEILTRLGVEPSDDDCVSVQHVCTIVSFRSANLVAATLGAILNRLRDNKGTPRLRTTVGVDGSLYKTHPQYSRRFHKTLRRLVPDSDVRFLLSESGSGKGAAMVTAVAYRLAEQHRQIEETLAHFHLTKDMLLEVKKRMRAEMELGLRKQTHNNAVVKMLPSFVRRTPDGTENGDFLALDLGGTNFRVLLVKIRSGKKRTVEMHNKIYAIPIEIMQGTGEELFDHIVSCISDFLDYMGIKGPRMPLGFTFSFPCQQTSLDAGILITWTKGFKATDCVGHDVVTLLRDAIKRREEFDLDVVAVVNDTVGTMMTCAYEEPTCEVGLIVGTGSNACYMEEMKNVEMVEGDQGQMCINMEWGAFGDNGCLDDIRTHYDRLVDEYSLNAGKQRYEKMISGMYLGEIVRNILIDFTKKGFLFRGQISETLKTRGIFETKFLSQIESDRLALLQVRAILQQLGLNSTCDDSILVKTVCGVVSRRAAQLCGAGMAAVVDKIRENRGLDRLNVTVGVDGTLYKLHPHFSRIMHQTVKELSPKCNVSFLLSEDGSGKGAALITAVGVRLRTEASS
UniProt Q6AI08: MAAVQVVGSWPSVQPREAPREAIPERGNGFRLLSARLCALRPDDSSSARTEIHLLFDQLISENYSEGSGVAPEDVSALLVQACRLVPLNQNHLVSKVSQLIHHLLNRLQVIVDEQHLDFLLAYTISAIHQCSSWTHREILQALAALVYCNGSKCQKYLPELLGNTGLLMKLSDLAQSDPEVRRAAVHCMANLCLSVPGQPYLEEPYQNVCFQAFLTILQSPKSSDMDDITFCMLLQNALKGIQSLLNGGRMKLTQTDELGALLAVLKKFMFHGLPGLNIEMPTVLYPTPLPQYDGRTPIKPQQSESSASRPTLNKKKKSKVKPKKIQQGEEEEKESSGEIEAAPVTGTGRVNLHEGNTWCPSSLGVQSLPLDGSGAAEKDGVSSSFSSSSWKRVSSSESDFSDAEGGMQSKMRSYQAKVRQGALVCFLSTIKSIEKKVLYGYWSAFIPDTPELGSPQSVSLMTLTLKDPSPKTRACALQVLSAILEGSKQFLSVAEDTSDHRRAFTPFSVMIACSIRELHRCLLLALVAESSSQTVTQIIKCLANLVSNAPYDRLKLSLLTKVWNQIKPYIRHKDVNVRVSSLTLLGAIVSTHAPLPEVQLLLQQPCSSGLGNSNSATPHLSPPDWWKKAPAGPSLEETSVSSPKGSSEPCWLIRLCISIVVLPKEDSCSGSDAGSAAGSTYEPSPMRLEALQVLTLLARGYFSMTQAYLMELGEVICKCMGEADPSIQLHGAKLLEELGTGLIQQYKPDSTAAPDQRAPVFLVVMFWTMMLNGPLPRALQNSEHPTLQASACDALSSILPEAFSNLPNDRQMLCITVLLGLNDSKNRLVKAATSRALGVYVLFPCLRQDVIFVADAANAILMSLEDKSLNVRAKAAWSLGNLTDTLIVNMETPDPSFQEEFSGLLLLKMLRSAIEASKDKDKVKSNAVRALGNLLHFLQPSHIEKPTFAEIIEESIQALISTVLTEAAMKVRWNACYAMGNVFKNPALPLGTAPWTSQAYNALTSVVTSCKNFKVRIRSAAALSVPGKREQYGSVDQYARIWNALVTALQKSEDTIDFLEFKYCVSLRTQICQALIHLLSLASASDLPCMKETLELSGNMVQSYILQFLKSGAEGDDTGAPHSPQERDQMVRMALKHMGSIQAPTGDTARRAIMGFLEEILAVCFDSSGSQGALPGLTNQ
UniProt P52597: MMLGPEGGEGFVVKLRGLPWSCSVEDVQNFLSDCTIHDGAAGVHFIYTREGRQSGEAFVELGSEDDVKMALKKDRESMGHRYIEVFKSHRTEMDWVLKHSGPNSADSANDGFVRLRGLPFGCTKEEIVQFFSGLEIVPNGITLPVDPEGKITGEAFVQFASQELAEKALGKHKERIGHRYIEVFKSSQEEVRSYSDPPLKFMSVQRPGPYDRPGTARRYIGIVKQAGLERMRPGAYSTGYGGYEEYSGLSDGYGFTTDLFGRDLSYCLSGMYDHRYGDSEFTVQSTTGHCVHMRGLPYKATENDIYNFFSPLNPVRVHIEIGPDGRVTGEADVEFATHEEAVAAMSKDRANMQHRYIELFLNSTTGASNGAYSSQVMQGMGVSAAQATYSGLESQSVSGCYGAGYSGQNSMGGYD

compound: CNC(=O)C1=CC=CC=C1NC2=NC(=NC=C2Cl)NC3=C(C=C(C=C3)N4CCOCC4)OC; experiment: log2 fold change, soluble protein after heating vs DMSO (PISA); higher = thermal stabilisation; K562 lysate, 10 uM; active = over 0.2 and 3.5 SD of the protein, either way, in both replicates (recomputed)
Procedure, shortened: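 Following dounce homogenisation of K562 pellets in PBS pH 7.4 with 1 mM MgCl2, crude extract at 1 mg/mL protein was incubated for 30 min with 10 μM compound. Aliquots were then heated for 3 min over 48°C-58°C and pooled, NP-40 was added to 0.5% at 4°C, and soluble protein was recovered as the supernatant at 21,000xg for 90 min. Channel-sum-equalised TMTpro 16plex LC-MS/MS quantified this protein. Each value, from duplicates, is a log-two fold change in thermal stability relative to solvent controls.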

log2 fold change, inactive:
HOOK3 (UniProt Q86VS8) 0.053, HINT3 (UniProt Q9NQE9) 0.023, HPS5 (UniProt Q9UPZ3) -0.034, HMGXB4 (UniProt Q9UGU5) 0.05, HECW2 (UniProt Q9P2P5) 0.102, HNMT (UniProt P50135) -0.009, HSBP1 (UniProt O75506) -0.209, HNRNPR isoform 2 (UniProt O43390) 0.012, HSPA1A (UniProt P0DMV8) -0.023, HSD17B7 (UniProt P56937) 0.064, HP1BP3 (UniProt Q5SSJ5) -0.045, HPF1 (UniProt Q9NWY4) 0.015, HECTD4 (UniProt J3KPF0) 0.001, HNRNPA2B1 (UniProt P22626) -0.026, HELZ2 (UniProt Q9BYK8) -0.221, HOXB9 (UniProt P17482) 0.086, HPS1 (UniProt Q92902) 0.029, HIRA (UniProt P54198) 0.092, HJURP (UniProt Q8NCD3) 0.074, HEXD isoform 2 (UniProt Q8WVB3) -0.181, HK1 isoform 2 (UniProt P19367) -0.009, HEATR6 (UniProt Q6AI08) 0.025, HNRNPF (UniProt P52597) 0.01
